Our source for the survivor count and T/C values is PubChem BioAssay AID298 (DTP/NCI, 2004).

This assay has as its system MX-1 breast xenograft, intrarenal, nude mice, tumor weight. As to the kind of experiment: NCI In Vivo Anticancer Drug Screen. Data for tumor model Human Mammary Carcinoma MX-1 Xenograft (intrarenal inoculation) in NU/NU BALB/C (nude) mice. The conditions noted are these: T/C endpoint: mean tumor weight change, higher T/C = larger tumour; for T/C: evaluated on day 11. An outline of the steps: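 Efficacy in vivo: tumor measurement or survival of treated animals divided by that of vehicle-dosed controls.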
In general terms: A xenograft is tissue or cells of one species grown in another, often human tumour cells in immunodeficient mice.

[1] abbreviates: dose: 400.0 mg/kg/injection, schedule: Q04DX003 (ip), vehicle: saline with Tween-80.
The mark [2] stands for this setting: dose: 300.0 mg/kg/injection, schedule: Q04DX003 (sc), vehicle: saline.
The mark [3] stands for this setting: dose: 600.0 mg/kg/injection, schedule: Q04DX003 (sc), vehicle: saline.
The mark [4] stands for this setting: dose: 300.0 mg/kg/injection, schedule: Q04DX003 (sc), vehicle: Klucel (hydroxypropylcellulose) (HPC).
The mark [5] stands for this setting: dose: 800.0 mg/kg/injection, schedule: Q04DX003 (ip), vehicle: saline with Tween-80.
Setting [6] is: dose: 400.0 mg/kg/injection, schedule: Q04DX003 (sc), vehicle: saline with Tween-80.
Setting [7] is: dose: 800.0 mg/kg/injection, schedule: Q04DX003 (sc), vehicle: saline with Tween-80.
The mark [8] stands for this setting: dose: 400.0 mg/kg/injection, schedule: Q04DX003 (ip), vehicle: saline.

The list does not hold the whole screen: it is rich in T/C values a quarter to a half above the control, in often repeated tests (any T/C) and in doses without a T/C. Further doses and runs are listed elsewhere. T/C: endpoint of the treated group in % of that of the vehicle group. Schedules are NCI's codes, taken here to give the interval after Q, in days (D) or hours (H), and the number of doses after X. Some T/C values are negative: the treated tumours shrank. Some doses were run more than once; the results are listed from low to high. Brackets with × count equal records among those shown. Some T/C values carry the count of animals alive at the toxicity check (mostly the fifth day); without a count, all were alive then. Some doses have a count of surviving animals in place of a T/C: the source holds a T/C of zero for them, seemingly a mark for toxic or unscored doses. Survivors were counted at the toxicity check, usually on the fifth day, unless a day is given; later deaths do not show.

`NC(Cc1ccc(N(CCCl)Cc2ccccc2)cc1)C(=O)O` (centres undefined): the survivor count runs as follows: (dose: 200.0 mg/kg/injection, schedule: Q04DX003 (ip), vehicle: saline with Tween-80) 3 of 6 on day 11; under setting [1], 0 of 6 on day 11 and 3 of 6 on day 11; (dose: 555.56 mg/kg/injection, schedule: Q04DX003 (ip), vehicle: saline with Tween-80) 0 of 6 on day 11.
On to `CN(N=O)C(=O)N[C@@H](C=O)[C@@H](O)[C@H](O)[C@H](O)CO`, for which the survivor count is, setting by setting: (dose: 300.0 mg/kg/injection, schedule: Q04DX003 (ip), vehicle: other) 3 of 6 on day 11; under setting [2], 1 of 6 on day 11; under setting [3], 0 of 6 on day 11; (dose: 1200.0 mg/kg/injection, schedule: Q04DX003 (sc), vehicle: saline) 0 of 6 on day 11.
Regarding `CN=C(NC#N)NCCSCc1nc[nH]c1C`, the T/C under setting [4] was 146 % of control and the T/C (dose: 1200.0 mg/kg/injection, schedule: Q04DX003 (sc), vehicle: Klucel (hydroxypropylcellulose) (HPC)) was 130 % of control. In addition, the survivor count (dose: 2400.0 mg/kg/injection, schedule: Q04DX003 (sc), vehicle: Klucel (hydroxypropylcellulose) (HPC)) is 1 of 5 on day 11.
Consider `O=c1n(CC2CO2)c(=O)n(CC2CO2)c(=O)n1CC1CO1` (centres undefined), for which the survivor count runs as follows: (dose: 50.0 mg/kg/injection, schedule: Q01DX010 (sc), vehicle: saline) 1 of 3 on day 11; (dose: 100.0 mg/kg/injection, schedule: Q01DX010 (sc), vehicle: saline) 0 of 3 on day 11; (dose: 100.0 mg/kg/injection, schedule: Q04DX003 (sc), vehicle: suspension in saline) 0 of 6 on day 11; (dose: 200.0 mg/kg/injection, schedule: Q01DX010 (sc), vehicle: saline) 0 of 2 on day 11; (dose: 200.0 mg/kg/injection, schedule: Q04DX003 (sc), vehicle: suspension in saline) 0 of 6 on day 11.
Consider `CC(C)NC(=O)OCc1c(COC(=O)NC(C)C)c(-c2ccc(Cl)c(Cl)c2)n2c1CCC2`, for which the T/C by setting is: (dose: 30.0 mg/kg/injection, schedule: Q04DX003 (ip), vehicle: distilled water + Tween-80) -100 (2×) and 1 % of control (2×); (dose: 60.0 mg/kg/injection, schedule: Q04DX003 (ip), vehicle: distilled water + Tween-80) -87 [5 of 6 alive on day 11] (2×) and -82 % of control (2×); (dose: 120.0 mg/kg/injection, schedule: Q04DX003 (ip), vehicle: distilled water + Tween-80) -92 (2×) and -81 % of control [5 of 6 alive on day 11] (2×); (dose: 240.0 mg/kg/injection, schedule: Q04DX003 (ip), vehicle: distilled water + Tween-80) -91 [4 of 6 alive on day 11] (2×) and -67 % of control (2×).
On to `CN(C)CCNc1ccc(CO)c2sc3ccc(O)cc3c(=O)c12`, for which, under setting [5], the survivor count is 0 of 6 on day 11 and 1 of 6 on day 11.
With `CCN(CC)CC(C)(C)C(=O)/C=C/c1ccc(/C=C/C(=O)C(C)(C)CN(CC)CC)cc1`, the T/C reads like this: (dose: 15.0 mg/kg/injection, schedule: Q04DX003 (ip), vehicle: saline) 144 % of control; (dose: 30.0 mg/kg/injection, schedule: Q04DX003 (ip), vehicle: saline) 125 % of control. The survivor count (dose: 120.0 mg/kg/injection, schedule: Q04DX003 (ip), vehicle: saline) is 0 of 6 on day 11.
Consider `COc1ccc(Cl)[n+]([O-])n1`, for which the survivor count (dose: 200.0 mg/kg/injection, schedule: Q04DX003 (sc), vehicle: Klucel (hydroxypropylcellulose) (HPC)) is on record as 0 of 6 on day 11.
In the case of `C/C(=N\NC(=S)N1CC2CCC(CC2)C1)c1cccc(C)n1`, the survivor count (dose: 100.0 mg/kg/injection, schedule: Q04DX003 (ip), vehicle: saline with Tween-80) is listed as 3 of 6 on day 11.
For the compound `NC(=O)c1[nH]cnc1O`, the survivor count runs as follows: under setting [1], 3 of 6 on day 11; under setting [5], 0 of 6 on day 11.
Turning to `CC1=C/C(O)CC(=O)Cc2nc(co2)C(=O)N2CCC=C2C(=O)OC(C(C)C)C(C)/C=C\C(=O)NC/C=C\1` (centres undefined), under setting [4], the T/C is 130 % of control.
For `COC(=O)[C@@]12OC[C@]34[C@H]([C@@H](O)[C@@H]1O)[C@@]1(C)CC(=O)C(O)=C(C)[C@@H]1C[C@H]3OC(=O)[C@H](OC(=O)/C=C(\C)C(C)C)[C@@H]24`, the T/C (dose: 0.13 mg/kg/injection, schedule: Q01DX010 (sc), vehicle: saline + alcohol) is 138 % of control; the T/C (dose: 0.25 mg/kg/injection, schedule: Q01DX010 (sc), vehicle: saline + alcohol) is 141 % of control; the T/C (dose: 0.5 mg/kg/injection, schedule: Q01DX010 (sc), vehicle: saline + alcohol) is 126 % of control.
Turning to `CCc1ccc(C2=C(O)C(=O)C(c3ccc(CC)cc3)=C(O)C2=O)cc1`, the survivor count by setting is: under setting [6], 0 of 6 on day 11; under setting [7], 0 of 6 on day 11; (dose: 1600.0 mg/kg/injection, schedule: Q04DX003 (sc), vehicle: saline with Tween-80) 0 of 6 on day 11.
Consider `CN1CCN(c2ccc([N+](=O)[O-])c3no[n+]([O-])c23)CC1`, for which the survivor count (dose: 300.0 mg/kg/injection, schedule: Q04DX003 (sc), vehicle: saline with Tween-80) is given as 2 of 6 on day 11.
Consider `C1CC[N-]CC1.C1CC[N-]CC1.C1CC[N-]CC1.[Cl][Rh]([Cl])[Cl]`, for which the survivor count under setting [3] is 0 of 5 on day 11.
On to `CCCCOCN(COCCCC)C12CC3CC(CC(C3)C1)C2`, for which the survivor count under setting [7] is listed as 1 of 6 on day 11.
On to `O=P1(NCCCl)OCCCN1CCCl` (centres undefined), for which the survivor count was 3 of 6 on day 11 (dose: 75.0 mg/kg/injection, schedule: Q04DX003 (sc), vehicle: saline); 0 of 6 on day 11 under setting [2]; 0 of 6 on day 11 under setting [3].
For the compound `CNC=O`, the survivor count (dose: 800.0 mg/kg/injection, schedule: Q01DX010 (sc), vehicle: saline) was 1 of 6 on day 11.
On to `CN(C)N=Nc1ccc(C(N)=O)cc1`, for which the survivor count under setting [1] is 2 of 6 on day 11.
Take `NC(=S)N/N=C/c1ccc(O)cn1`: under setting [7], the survivor count is 0 of 6 on day 11.
As to `CC1=C[P+](c2ccccc2)(c2ccccc2)C=C(c2ccccc2)O1`, the T/C reads like this: (dose: 1.5 mg/kg/injection, schedule: Q04DX003 (ip), vehicle: saline) 147 % of control; (dose: 3.0 mg/kg/injection, schedule: Q04DX003 (ip), vehicle: saline) 138 % of control. In addition, the survivor count is, setting by setting: (dose: 6.0 mg/kg/injection, schedule: Q04DX003 (ip), vehicle: saline) 1 of 6 on day 11; (dose: 12.5 mg/kg/injection, schedule: Q04DX003 (ip), vehicle: saline) 0 of 6 on day 11; (dose: 25.0 mg/kg/injection, schedule: Q04DX003 (ip), vehicle: saline) 0 of 6 on day 11; (dose: 50.0 mg/kg/injection, schedule: Q04DX003 (ip), vehicle: saline) 0 of 6 on day 11; (dose: 100.0 mg/kg/injection, schedule: Q04DX003 (ip), vehicle: saline) 0 of 6 on day 11.
As to `O=C(Nc1cccnc1)c1ccc([N+](=O)[O-])s1`, the survivor count under setting [8] is on record as 3 of 6 on day 11.
As for `O=C1CNC(=O)N1CN1CCOCC1`, the survivor count (dose: 1200.0 mg/kg/injection, schedule: Q04DX003 (ip), vehicle: Klucel (hydroxypropylcellulose) (HPC)) is 2 of 6 on day 11.
As to `Cc1ccc(S(=O)(=O)NC(=O)OC23COCN2COC3)cc1`, the T/C under setting [6] is 127 % of control.
For `Cc1ccc(C(=O)Nc2ccc(S(=O)(=O)O)c3cc(S(=O)(=O)O)cc(S(=O)(=O)O)c23)cc1NC(=O)c1cccc(NC(=O)Nc2cccc(C(=O)Nc3cc(C(=O)Nc4ccc(S(=O)(=O)O)c5cc(S(=O)(=O)O)cc(S(=O)(=O)O)c45)ccc3C)c2)c1`, the survivor count under setting [8] is on record as 2 of 6 on day 11.
